Reference: PubChem BioAssay AID1671195 (Yale University, 2021)
In all, the deposit lists about 22,000 reagents; this is a part drawn at random. Over the whole deposit, about 1,510 (6.9%) were called active. 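Active includes knockdowns raising or lowering LDL uptake; positive z-scores mean more uptake, negative mean less.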 No sequences are given here.

- Purpose: 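Knockdowns that increase or decrease uptake of fluorescent LDL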 (primary screen)
- System: human Huh7 hepatoma cells
- Knock-down reagent: siRNA pool against human genes, 18 nM
- Duration: about 2 to 2.5 days of knockdown, then 8 h LDL uptake
- Challenge: DiI-labelled LDL at 30 µg/ml for 8 h, in lipoprotein-deficient serum medium
- Read-out: 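Fluorescent LDL signal imaged in cells, scaled to the plate median, robust z-score for each replicate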
- Scale: robust z-score: higher = more LDL uptake after knockdown
- Rule for the call: 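a gene counts as active if at least two replicate z-scores exceed ±2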

target	PubChem SID	robust z-score, replicate 1	robust z-score, replicate 2	robust z-score, replicate 3	call
LOC442371 (retired record)	SID442888731	0.359	1.2	0.451	inactive
GAN	SID442886195	0.825	1.16	1.72	inactive
MARCKS	SID442896000	-0.229	-0.697	0.242	inactive
MST1R	SID442895066	-0.699	0.0505	0.259	inactive
ARK2N	SID442890239	0.126	0.689	0.517	inactive
TUFT1	SID442892136	1.7	-0.815	-0.271	inactive
TBATA	SID442883109	5.46	6.44	5.96	active
AMACR	SID442888264	0.488	1.28	0.49	inactive
LOC441598 (retired record)	SID442889169	0.641	0.628	0.535	inactive

Only “robust z-score, replicate 1” (3 entries from above):
TUFT1 [SID442892136]	1.7
TBATA [SID442883109]	5.46
AMACR [SID442888264]	0.488

Further reagents follow:
target	PubChem SID	robust z-score, replicate 1	robust z-score, replicate 2	robust z-score, replicate 3	call
SIK3	SID442883614	3.1	3.46	1.17	active
NCR3LG1	SID442883102	7.15	6.24	6.68	active
LOC440506 (retired record)	SID442891925	0.527	0.11	0.0505	inactive
TUBGCP5	SID442899649	0.379	-1.58	-0.753	inactive
RPL12P17	SID442884558	-2.64	-2.46	-2.37	active
CHMP4B	SID442883831	2.2	1.86	2.71	active
CAPN11	SID442903771	-1.63	-1.12	-1.42	inactive
OR8K1	SID442902466	-1.25	-1.06	-0.939	inactive
LINC01591	SID442885772	1.05	1.87	1.21	inactive
SENP6	SID442886594	0.309	2.11	0.928	inactive
C8orf82	SID442897468	-0.629	-0.043	-0.495	inactive
CCNC	SID442885124	2.74	1.02	1.25	inactive
MMP9	SID442898763	-1.01	0.00438	-0.603	inactive
RPSAP31	SID442895661	-0.204	-0.254	-0.116	inactive
PDK3	SID442886252	0.984	1.59	1.08	inactive
LOC162835 (retired record)	SID442894617	-0.277	0.245	-0.216	inactive
SCCPDH	SID442884864	2.04	1.56	1.89	inactive
TCTN2	SID442895467	-0.365	0.23	-0.381	inactive
TMEM181	SID442903553	-0.929	-1.3	-1.74	inactive
